From patent US11220671B2, “Methods for the maturation of cardiomyocytes on amniotic fluid cell-derived ECM, cellular constructs, and uses for cardiotoxicity and proarrhythmic screening of drug compounds” (STEMBIOSYS, INC., priority 2019, dated 2022)

Experiment: Composition of amniotic fluid cell-derived ECM by mass spectrometry (total spectra count)

B1: Alpha-actinin-1 (protein, UniProt P12814 1-892, looked up)
Alpha-actinin-1: MDHYDSQQTNDYMQPEEDWDRDLLLDPAWEKQQRKTFTAWCNSHLRKAGTQIENIEEDFRDGLKLMLLLEVISGERLAKPERGKMRVHKISNVNKALDFIASKGVKLVSIGAEEIVDGNVKMTLGMIWTIILRFAIQDISVEETSAKEGLLLWCQRKTAPYKNVNIQNFHISWKDGLGFCALIHRHRPELIDYGKLRKDDPLTNLNTAFDVAEKYLDIPKMLDAEDIVGTARPDEKAIMTYVSSFYHAFSGAQKAETAANRICKVLAVNQENEQLMEDYEKLASDLLEWIRRTIPWLENRVPENTMHAMQQKLEDFRDYRRLHKPPKVQEKCQLEINFNTLQTKLRLSNRPAFMPSEGRMVSDINNAWGCLEQVEKGYEEWLLNEIRRLERLDHLAEKFRQKASIHEAWTDGKEAMLRQKDYETATLSEIKALLKKHEAFESDLAAHQDRVEQIAAIAQELNELDYYDSPSVNARCQKICDQWDNLGALTQKRREALERTEKLLETIDQLYLEYAKRAAPFNNWMEGAMEDLQDTFIVHTIEEIQGLTTAHEQFKATLPDADKERLAILGIHNEVSKIVQTYHVNMAGTNPYTTITPQEINGKWDHVRQLVPRRDQALTEEHARQQHNERLRKQFGAQANVIGPWIQTKMEEIGRISIEMHGTLEDQLSHLRQYEKSIVNYKPKIDQLEGDHQLIQEALIFDNKHTNYTMEHIRVGWEQLLTTIARTINEVENQILTRDAKGISQEQMNEFRASFNHFDRDHSGTLGPEEFKACLISLGYDIGNDPQGEAEFARIMSIVDPNRLGVVTFQAFIDFMSRETADTDTADQVMASFKILAGDKNYITMDELRRELPPDQAEYCIARMAPYTGPDSVPGALDYMSFSTALYGESDL
Total Spectra Count Matrix A (protein component found by mass spectrometry in amniotic fluid cell-derived ECM Matrix A (Example 1)): 62
Total Spectra Count Matrix B (protein component found by mass spectrometry in amniotic fluid cell-derived ECM Matrix B (Example 1)): 217
Total Spectra Count Matrix C (protein component found by mass spectrometry in amniotic fluid cell-derived ECM Matrix C (Example 1)): 19
Total Spectra Count Matrix D (protein component found by mass spectrometry in amniotic fluid cell-derived ECM Matrix D (Example 1)): 77
